Laboratory results taken from PubChem BioAssay AID652054 (National Center for Advancing Translational Sciences (NCATS), 2013).
Out of some 360,000 compounds screened, about 9,100 (2.5%) were called active. Inconclusive means that the source gave no clear call. Such entries were picked first, then a sample of the others. No stated cut-off is given here; in the data, active means max response below about -50%; inconclusive means no clear call, values can overlap the other calls; inactive means above that.

Chains of the proteins cited; added tags and fusions are not shown.
UniProt P35462, whole entry, looked up: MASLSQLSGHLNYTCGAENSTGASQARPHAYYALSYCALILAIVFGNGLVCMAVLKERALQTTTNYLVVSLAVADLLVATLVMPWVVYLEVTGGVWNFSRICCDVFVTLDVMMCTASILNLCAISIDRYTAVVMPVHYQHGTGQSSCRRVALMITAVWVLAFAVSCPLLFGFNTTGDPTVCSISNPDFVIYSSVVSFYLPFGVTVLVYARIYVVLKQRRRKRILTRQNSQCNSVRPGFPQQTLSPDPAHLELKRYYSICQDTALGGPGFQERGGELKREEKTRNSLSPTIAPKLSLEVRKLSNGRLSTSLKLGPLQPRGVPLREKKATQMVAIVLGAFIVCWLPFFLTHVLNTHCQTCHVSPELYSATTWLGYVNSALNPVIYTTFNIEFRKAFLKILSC

Biological target: D(3) dopamine receptor (Homo sapiens) (UniProt P35462)
Assay: qHTS of D3 Dopamine Receptor Antagonist: qHTS
Conditions: D3R cells, DiscoveRx beta-arrestin luminescence, antagonist mode; active compounds read low
How it was run: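 Cells plated overnight at 1500 cells/well, then exposed to library compounds with dopamine controls for 90 minutes at 37 degrees C. DiscoveRx reagent added for 30–60 minutes at room temperature; luminescence read, quantitative HTS format.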
On the % scale 0 is the no-effect control and ±100 the full control effect.

Compound | max response, negative = inhibition
Cc1cccc(OCc2nc(C#N)c(N3CCCC3)o2)c1 | inactive: 1.57%
Cc1nc(Nc2ccccc2)sc1-c1ccccc1 | inconclusive: -30.8%
COc1cccc(C(C(=O)NCc2ccccc2)N2CCN(c3ccccc3F)CC2)c1OC (stereo not given) | inactive: 5.92%
O=C(CC[C@H]1O[C@@H](n2ccc(=O)[nH]c2=O)[C@H](O)[C@@H]1O)N[C@H](Cc1ccccc1)C(=O)NCCCN1CCCC1=O | inconclusive: -31.1%
COc1ccc(C)cc1NC(=S)NNC(=O)c1ccccc1Cl | inactive: 34.8%
Cc1cccc(NC(=O)C2CCN(S(=O)(=O)c3ccc4c(c3)OCCO4)CC2)n1 | active: -53.6%
CN(C)C(CNC(=O)c1ccc2c(=O)n(-c3ccccc3F)c(=S)[nH]c2c1)Cc1ccccc1 (stereo not given) | inconclusive: -30.8%
COc1ccc(C(=O)NC2CC3CCCC(C2)N3Cc2ccccc2)cc1OC (stereo not given) | active: -94%
O=C(Nc1cccc(-c2nn[nH]n2)c1)c1ccc(Cl)s1 | inconclusive: -34.1%
COc1cc(/C=N/Nc2nncn2N)ccc1OCc1c(C)no[n+]1[O-] | inactive: -2.16%
CC(=O)Nc1cncc(-c2cccc(C(=O)N(C)C)c2)n1 | inconclusive: -45%
CCN(CC)c1ccc(/C=C(/C#N)c2nc3ccc(C)cc3[nH]2)c(OC(C)C)c1 | inconclusive: -30.1%
CC(=C/c1ccccc1)/C=N/NC(=O)c1ccc2nc[nH]c2c1 | inactive: 5.21%
C/C(=N\NC(=O)COc1ccccc1-c1ccccc1)c1ccccn1 | active: -58.3%
O=C1NC[C@H](c2ccccc2)OC(=O)[C@H](Cc2ccc(F)cc2)CC/C=C/C[C@H]1CC(=O)N(CCO)Cc1ccccc1 | inactive: 0%
C[C@H](CO)N1C[C@H](C)[C@@H](CN(C)Cc2ccncc2)Oc2c(NC(=O)C3CC3)cccc2C1=O | inactive: 47.9%
O=C(Oc1ccc(-c2cnc3ccccc3n2)cc1)c1ccc(Cl)c([N+](=O)[O-])c1 | inconclusive: -34.8%
Cc1sc2ncn3cnnc3c2c1C | inconclusive: -38.1%
COc1ccc(N2CCN(C(=O)CN3C(=O)NC4(CCCc5ccccc54)C3=O)CC2)cc1 (stereo not given) | active: -73.6%
C/C(=N\Nc1nc(-c2cc(C)ccc2C)cs1)c1cc2c(ccc3ccccc32)oc1=O | inconclusive: -37.8%
COC(Cc1nnc(SC)n1-c1ccc(Cl)cc1)OC | inactive: 4.77%
COc1ccc(-n2ncc3c(=O)n(CC(=O)N4c5ccccc5CC4C)cnc32)cc1 (stereo not given) | inconclusive: -34.7%
Cc1ccc(NC(=O)CC2S/C(=N/N=C3/NC(=O)CS3)NC2=O)cc1 (stereo not given) | inconclusive: -36.3%

Compound | max response, negative = inhibition
Cc1ccc(NC(=O)C2CC(=O)N(C(C)c3ccccc3)C2)cc1 (stereo not given) | inconclusive: -38.5%
COc1ccc(NC(=S)N(CCCN2CCCC2)Cc2cccn2Cc2ccc(Cl)cc2)cc1Cl | inconclusive: -32.9%
Cc1ccc(OCC(=O)N(Cc2ccc(N(C)C)cc2)C2CCS(=O)(=O)C2)cc1 (stereo not given) | inactive: 0.305%
C[C@H](O)[C@@H]1CN2CCc3c([nH]c4ccccc34)[C@@H]2C[C@@H]1N(C)C(=O)OCc1ccccc1 | inconclusive: -32.4%
Cc1cccc(CNC(=O)c2sc(=O)n(Cc3ccccc3C)c2C)c1 | inconclusive: -48.3%
CCCCNCCOCCOc1ccc(C)cc1[N+](=O)[O-] | active: -53.3%
O=C(COC(=O)c1cc(-c2ccccc2)nc2ccccc12)Nc1ccc2c(c1)OCO2 | inactive: -6.61%
Cc1cccc(N2CCN(C(=S)Nc3ccc4nc(N5CCN(C)CC5)cc(C)c4c3)CC2)c1C | inactive: -25.1%
C/C=C(\C)CN1CCN(c2cccc(C)c2C)CC1 | active: -88.4%
CC[n+]1c(C)sc2cc(OC)ccc21 | inconclusive: -46.1%
Cc1nc(SCC(=O)N2c3ccccc3Sc3ccccc32)n[nH]1 | active: -56.7%
O=C(NNC(=O)C1CCN(Cc2ccc(Cl)c(Cl)c2)CC1)c1cccs1 | inconclusive: -44.8%
O=C(C[n+]1cccc(CNC(=O)c2ccc(OC(F)F)cc2)c1)Nc1cccc(C(F)(F)F)c1 | active: -50.7%
Clc1ccc(CN2CCCCCC2)cc1Cl | active: -62.3%
CCOC(=O)C1=CN(Cc2cccc(Br)c2)S(=O)(=O)N(C)C1C (stereo not given) | inactive: 1.04%
CC1(C)CC(=O)C(C=NCCN2CCN(C(=O)c3ccc(Br)cc3)CC2)=C(O)C1 | inconclusive: -31.1%
CC(=O)c1cccc(NC(=S)NCCc2ccc(Cl)cc2)c1 | inconclusive: -33.7%
Cc1c(Br)c([N+](=O)[O-])nn1CC(=O)NC1CCCCCC1 | inactive: -4.91%
Cn1cccc1C(=O)NC(=O)COC(=O)c1ccc(S(C)(=O)=O)c([N+](=O)[O-])c1 | active: -76.7%
O=C(NC1CCN(Cc2ccccc2Cl)CC1)c1ccccc1 | inconclusive: -30.3%
Cc1cc2ncn(CC(O)COC3CCCCC3)c2cc1C (stereo not given) | inconclusive: -31.9%
CCCCCCc1cc2cc(S(=O)(=O)c3ccc(F)cc3)c(=O)oc2cc1O | inactive: 11.6%

3 consecutive compounds out of the list so far, for reference:
Compound | max response, negative = inhibition
O=C(C[n+]1cccc(CNC(=O)c2ccc(OC(F)F)cc2)c1)Nc1cccc(C(F)(F)F)c1 | active: -50.7%
Clc1ccc(CN2CCCCCC2)cc1Cl | active: -62.3%
CCOC(=O)C1=CN(Cc2cccc(Br)c2)S(=O)(=O)N(C)C1C (stereo not given) | inactive: 1.04%
